Results as given in patent US20100150918A1.
Changes are numbered by the printed parent chain. Names may count otherwise. Results are given in words; binding and its absence hold for the method and conditions named. Some binding calls cover weakened binding; strength is not graded here.

Tests used:
Test in all cases: FACS 293-HEK transfectant
[1] = molecular target: T1, 1-27 CD3-EpCAM, marmoset 27 mer (Callithrix jacchus; cynomolgus)
T1 sequence: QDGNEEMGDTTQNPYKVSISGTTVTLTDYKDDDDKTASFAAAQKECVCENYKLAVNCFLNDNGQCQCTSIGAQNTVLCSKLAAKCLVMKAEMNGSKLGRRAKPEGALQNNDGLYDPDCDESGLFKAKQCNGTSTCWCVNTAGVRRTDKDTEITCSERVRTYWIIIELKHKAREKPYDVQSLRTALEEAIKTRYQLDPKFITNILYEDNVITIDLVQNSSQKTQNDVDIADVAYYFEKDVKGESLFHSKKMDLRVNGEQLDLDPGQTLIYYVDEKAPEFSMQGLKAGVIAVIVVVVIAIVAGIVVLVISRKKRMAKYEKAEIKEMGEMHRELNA

[2] = molecular target: T2, 1-27 CD3-EpCAM, squirrel monkey 27 mer (Saimiri sciureus; cynomolgus)
T2 sequence: T1 sequence with M7I

[3] = molecular target: T3, 1-27 CD3-EpCAM, tamarin 27 mer (Saguinus oedipus; cynomolgus)
T3 sequence: T1 sequence

Measured: binding

B1: E2M HLP (scFv)
scFv: EVQLLESGGGLVQPGGSLKLSCAASGFTFNGYAMNWVRQAPGKGLEWVARIRSKYNNYATYYADSVKERFTISRDDSKNTAYLQMNNLKTEDTAVYYCVRHRNFGNSYLSWFAYWGQGTLVTVSSGGGGSGGGGSGGGGSELVVTQEPSLTVSPGGTVTLTCRSSTGAVTSGYYPNWVQQKPGQAPRGLIGATDMRPSGTPARFSGSLLGGKAALTLSGVQPEDEAEYYCALWYSNRWVFGGGTKLTVL
binds: all assays above
